# Laboratory results published in patent US5436128A, “Assay methods and compositions for detecting and evaluating the intracellular transduction of an extracellular signal” (Salk Institute Biotechnology/Industrial Associates, priority 1993, dated 1995).
# By UniProt entry, the sequences of proteins in these tests, tags left out.
# UniProt P20309, whole entry: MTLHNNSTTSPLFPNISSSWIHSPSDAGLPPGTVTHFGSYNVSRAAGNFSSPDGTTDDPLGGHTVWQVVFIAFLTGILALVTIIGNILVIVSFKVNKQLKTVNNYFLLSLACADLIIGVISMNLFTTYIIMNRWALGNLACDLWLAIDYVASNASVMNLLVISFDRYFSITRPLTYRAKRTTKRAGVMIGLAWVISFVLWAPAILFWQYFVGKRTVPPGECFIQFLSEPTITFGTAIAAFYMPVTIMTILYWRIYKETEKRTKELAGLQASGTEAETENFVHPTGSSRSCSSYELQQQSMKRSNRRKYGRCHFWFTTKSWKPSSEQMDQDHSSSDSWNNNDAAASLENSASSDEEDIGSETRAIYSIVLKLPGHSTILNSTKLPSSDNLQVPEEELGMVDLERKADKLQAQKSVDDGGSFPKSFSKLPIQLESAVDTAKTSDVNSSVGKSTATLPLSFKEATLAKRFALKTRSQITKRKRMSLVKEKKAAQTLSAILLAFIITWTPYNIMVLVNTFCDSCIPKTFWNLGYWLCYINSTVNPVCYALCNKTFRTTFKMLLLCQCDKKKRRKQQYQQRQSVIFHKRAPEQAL
# Legend:
# [1] = molecular target: M1 muscarinic receptor (Homo sapiens, UniProt P20309); test: cell-based
# [2] = molecular target: M1 receptor; conditions: read-out: IC50 for displacement of specifically bound 3H-NMS, PC12 cells, 1 hr, 37° C.
# [3] = molecular target: M1 receptor (Homo sapiens, UniProt P20309); test: biochemical
smiles,measurement,setting,value
CN1[C@@H]2C[C@@H](OC(=O)[C@H](CO)c3ccccc3)C[C@H]1[C@@H]1O[C@@H]12 [scopolamine],IC50,[1],36 nM
same,IC50,[2],5 nM
same,IC50,[3],4 nM
